This assay has as its target human CD73 recombinant protein (Homo sapiens, UniProt P21589). The assay is described as follows: Enzyme assay, CD73 (Malachite green kit). As to conditions: read-out: Enzyme Activity (IC50, μM) CD73, AMP added, incubation 30 minutes. As for the experimental part: Referring to a method described in a reference document [Front Pharmacol. 2018 Mar. 1; 9:153], an enzyme assay was performed. Each of human CD73 and CD39 recombinant proteins was produced and then purified and isolated, and used in an enzyme assay. A buffer was basically 25 mM Tris, 5 mM MgCl2, pH 7.5 as an assay buffer, and for assay, human CD73 and CD39 recombinant protein were diluted at an appropriate concentration, respectively, in the assay buffer, adenosine monophosphate (AMP) (Sigma, Catalog #A1752) at an appropriate concentration was added, and then incubation was performed for 30 minutes. At the time, the azolopyrimidine heterocyclic compounds of the present invention were treated for each concentration and incubated together, thereby measuring a degree of inhibiting activity of CD73 or CD39.

The chains behind the UniProt entries cited, without tags or fusion partners. Residues count along the entry.
UniProt P21589, 27-549 limits assumed: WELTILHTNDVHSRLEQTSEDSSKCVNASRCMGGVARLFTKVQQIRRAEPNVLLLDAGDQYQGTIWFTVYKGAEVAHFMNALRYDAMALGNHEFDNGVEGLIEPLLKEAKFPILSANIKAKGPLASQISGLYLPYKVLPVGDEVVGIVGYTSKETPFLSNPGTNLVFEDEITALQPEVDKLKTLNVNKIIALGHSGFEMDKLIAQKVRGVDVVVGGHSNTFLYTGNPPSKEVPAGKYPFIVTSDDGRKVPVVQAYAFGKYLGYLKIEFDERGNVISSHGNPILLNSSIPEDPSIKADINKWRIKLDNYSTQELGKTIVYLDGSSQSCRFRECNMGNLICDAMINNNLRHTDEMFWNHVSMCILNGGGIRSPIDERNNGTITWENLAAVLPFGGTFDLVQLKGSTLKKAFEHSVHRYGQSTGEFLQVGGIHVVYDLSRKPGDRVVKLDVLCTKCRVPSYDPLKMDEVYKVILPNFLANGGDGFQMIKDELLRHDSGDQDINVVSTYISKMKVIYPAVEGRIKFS

The structures given here were assigned with low confidence; some may be wrong.

The IC50 is the concentration that inhibits the measured activity by half.

For `CN(Cc1cccc(F)c1)c1ncnc2c1ncn2[C@@H]1O[C@H](COC(=S)Oc2ccccc2)[C@H]2OC(C)(C)O[C@H]21`, the IC50 lay in the range of 1.1 to 5 µM.

These data come from US20220160747A1, “PHARMACEUTICAL COMPOSITION COMPRISING NOVEL AZOLOPYRIMIDINE HETEROCYCLIC COMPOUND AS ACTIVE INGREDIENT” (KOREA RESEARCH INSTITUTE OF CHEMICAL TECHNOLOGY, priority 2019, published 2022).
